PubChem BioAssay AID1259308 | NCATS, 2017

- Purpose: 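Genes whose loss raises luciferase production in HEK293 cells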 (primary screen)
- Cell system: human HEK293 embryonic kidney cells stably expressing firefly luciferase (HEK-CMV-Luc2-Hygro)
- Knock-down reagent: single siRNA against human genes, 0.8 pmol siRNA per well
- Duration: 72 h
- Read-out: 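Reporter luminescence and viable-cell signal on separate replicate plates, given as percent of non-targeting control and median/MAD z-scores, plus per-cell luciferase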
- Direction: total luciferase, z-score: higher = more reporter protein produced
- Rule for the call: 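An siRNA counts as active if its total luciferase robust z-score exceeds 3; genes with two or more such siRNAs out of three were retested with fresh siRNAs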
- Calls: active = raised luciferase; inactive = no rise
The whole screen tested about 59,000 reagents; shown is a part drawn at random. Over the whole deposit, about 1,510 (2.6%) got an active call. 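Calls use total luciferase alone and ignore viability, so some active siRNAs may act by altering cell number.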 Entries without a mark were called inactive. The numbers tell different reagents against one gene apart. Not all columns of the deposit are shown.

total luciferase, z-score, by gene symbol and reagent
LIMK1: #1 0.422; #2 0.247; #3 -0.431
CTPS1: #1 -0.856; #2 0.391; #3 2.22
CARMN: #1 0.159; #2 0.481; #3 0.503
KCNC4: #1 0.72; #2 0.446; #3 -1.94
LINC02453: #1 -1.59; #2 -0.89; #3 2.16
PRR27: #1 0.783; #2 -0.475; #3 -1.4

2 entries from above, ordered by “total luciferase, z-score”, low to high.
gene symbol	siRNA no.	total luciferase, z-score
CTPS1	1	-0.856
LIMK1	3	-0.431

Additional results follow:
total luciferase, z-score, by gene symbol and reagent
APOL1: #1 0.188; #2 2.65; #3 -0.289
DENND6B: #1 -0.292; #2 -0.337; #3 -1.33
LOC649935 (retired record): #1 -0.438; #2 -1.8; #3 0.176
ZNF85: #1 0.0517; #2 -0.203; #3 1.4
SERPINB12: #1 -0.366; #2 -0.437; #3 -0.884
CALCB: #1 0.323; #2 -0.0997; #3 0.3
MCM10: #1 -0.145; #2 0.427; #3 1.2
